Literature values, collected in US10653648B2, “Histone acetyltransferase activators and compositions and uses thereof” (THE TRUSTEES OF COLUMBIA UNIVERSITY IN THE CITY OF NEW YORK, priority 2016, dated 2020).
At least one compound was matched to its structure with a doubt left.

Details: cited from earlier work

CCOc1ccccc1C(=O)Nc1ccc(Cl)c(C(F)(F)F)c1 [CTB]
membrane permeability: membrane-impermeable
